{"source": "PubChem BioAssay AID686943 (Drosophila RNAi Screening Center, 2013)", "test": "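Knockdowns that increase or decrease active ERK after insulin receptor stimulation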 (primary screen)", "cell system": "Drosophila S2R+ haemocyte-like cells expressing YFP-tagged ERK (Rolled)", "reagent": "long dsRNA against Drosophila genes", "conditions": "insulin stimulation versus unstimulated cells; dose and duration not given", "measured": "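Antibody staining for doubly phosphorylated ERK divided by ERK-YFP signal, as plate z-scores, in insulin-treated and untreated cells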", "direction": "replicate 1, z-score of dpERK with insulin: higher = more active ERK per ERK-YFP after insulin", "note": "In all, the deposit lists about 23,000 reagents; below is an unselected part of those that have a named target and a result. 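Extra replicates exist only for a retested subset of genes; insulin dose and duration not given; both raised and lowered dpERK matter.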 Reagents against one gene are numbered here. Names joined by + are all predicted targets of the reagent. Not all columns of the deposit are shown. The record does not give: the amount of reagent, the time to read-out."}
{"predicted target": "CG14451", "dsRNA no.": 1, "replicate 1, z-score of dpERK with insulin": -1.56}
{"predicted target": "CG34367", "dsRNA no.": 1, "replicate 1, z-score of dpERK with insulin": 0.31}
{"predicted target": "CG34367", "dsRNA no.": 2, "replicate 1, z-score of dpERK with insulin": -0.86}
{"predicted target": "CG4297", "dsRNA no.": 1, "replicate 1, z-score of dpERK with insulin": 0.24}
{"predicted target": "CG14330", "dsRNA no.": 1, "replicate 1, z-score of dpERK with insulin": 0.81}
{"predicted target": "Vm26Aa", "dsRNA no.": 1, "replicate 1, z-score of dpERK with insulin": -0.32}
{"predicted target": "CG32832", "dsRNA no.": 1, "replicate 1, z-score of dpERK with insulin": 0.07}
{"predicted target": "CG17221", "dsRNA no.": 1, "replicate 1, z-score of dpERK with insulin": -0.36}
{"predicted target": "GrlHz", "dsRNA no.": 1, "replicate 1, z-score of dpERK with insulin": -0.43}
{"predicted target": "Fbxl4", "dsRNA no.": 1, "replicate 1, z-score of dpERK with insulin": 0.47}
{"predicted target": "Ppm1", "dsRNA no.": 1, "replicate 1, z-score of dpERK with insulin": 1.24}
{"predicted target": "trbl", "dsRNA no.": 1, "replicate 1, z-score of dpERK with insulin": -0.13}
{"predicted target": "CG33090", "dsRNA no.": 1, "replicate 1, z-score of dpERK with insulin": 0}
{"predicted target": "CG10252", "dsRNA no.": 1, "replicate 1, z-score of dpERK with insulin": 0.48}
{"predicted target": "Dora", "dsRNA no.": 1, "replicate 1, z-score of dpERK with insulin": -1.35}
{"predicted target": "Dora", "dsRNA no.": 2, "replicate 1, z-score of dpERK with insulin": 1.28}
{"predicted target": "Dora", "dsRNA no.": 3, "replicate 1, z-score of dpERK with insulin": 0.47}
{"predicted target": "Dora", "dsRNA no.": 4, "replicate 1, z-score of dpERK with insulin": -2.37}
{"predicted target": "Snap25", "dsRNA no.": 1, "replicate 1, z-score of dpERK with insulin": 0.52}
{"predicted target": "Snap25", "dsRNA no.": 2, "replicate 1, z-score of dpERK with insulin": -0.35}
{"predicted target": "CG10853", "dsRNA no.": 1, "replicate 1, z-score of dpERK with insulin": 2.02}
{"predicted target": "CG42518 + MED9", "dsRNA no.": 1, "replicate 1, z-score of dpERK with insulin": 2.09}
{"predicted target": "klg", "dsRNA no.": 1, "replicate 1, z-score of dpERK with insulin": -2.73}
{"predicted target": "klg", "dsRNA no.": 2, "replicate 1, z-score of dpERK with insulin": -0.07}
{"predicted target": "Mtr4", "dsRNA no.": 1, "replicate 1, z-score of dpERK with insulin": 1.19}
{"predicted target": "CG10809", "dsRNA no.": 1, "replicate 1, z-score of dpERK with insulin": -0.48}
{"predicted target": "RpS17", "dsRNA no.": 1, "replicate 1, z-score of dpERK with insulin": -0.86}
{"predicted target": "GluRIIA", "dsRNA no.": 1, "replicate 1, z-score of dpERK with insulin": 0.06}
{"predicted target": "CG6136", "dsRNA no.": 1, "replicate 1, z-score of dpERK with insulin": -0.56}
{"predicted target": "gol", "dsRNA no.": 1, "replicate 1, z-score of dpERK with insulin": -0.81}
{"predicted target": "CG32751", "dsRNA no.": 1, "replicate 1, z-score of dpERK with insulin": 0.39}

Part of the list above in another layout:
GrlHz
- replicate 1, z-score of dpERK with insulin: -0.43

Fbxl4
- replicate 1, z-score of dpERK with insulin: 0.47

Ppm1
- replicate 1, z-score of dpERK with insulin: 1.24

trbl
- replicate 1, z-score of dpERK with insulin: -0.13
